## Cleaved PARP after 72 h of treatment

From a melanoma drug combination screen (doi:10.1371/journal.pone.0140310); values rounded.

Drug key:
NVP-BEZ235 (0.02 µM): Cn1c(=O)n(-c2ccc(C(C)(C)C#N)cc2)c2c3cc(-c4cnc5ccccc5c4)ccc3ncc21
embelin (6 µM): CCCCCCCCCCCC1=C(O)C(=O)C=C(O)C1=O
sunitinib (2 µM): CCN(CC)CCNC(=O)c1c(C)[nH]c(/C=C2\C(=O)Nc3ccc(F)cc32)c1C
PF-562271 (0.4 µM): CN(c1ncccc1CNc1nc(Nc2ccc3c(c2)CC(=O)N3)ncc1C(F)(F)F)S(C)(=O)=O
SU6656 (2 µM): CN(C)S(=O)(=O)c1ccc2c(c1)/C(=C/c1cc3c([nH]1)CCCC3)C(=O)N2
darinaparsin (2 µM): C[As](C)SC[C@H](NC(=O)CC[C@H](N)C(=O)O)C(=O)NCC(=O)O
CX-4945 (2 µM): O=C(O)c1ccc2c(c1)nc(Nc1cccc(Cl)c1)c1ccncc12
ENMD-2076 (0.2 µM): Cc1cc(Nc2cc(N3CCN(C)CC3)nc(/C=C/c3ccccc3)n2)n[nH]1
STA-4783 (0.03 µM): CN(NC(=O)CC(=O)NN(C)C(=S)c1ccccc1)C(=S)c1ccccc1
ruxolitinib (5 µM): N#CC[C@H](C1CCCC1)n1cc(-c2ncnc3[nH]ccc23)cn1
FH535 (5 µM): Cc1cc([N+](=O)[O-])ccc1NS(=O)(=O)c1cc(Cl)ccc1Cl

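Human melanoma cell lines in 1,536-well plates were treated with a pair of drugs for 72 h, then fixed, stained and imaged. Each value is the cleaved-PARP-positive fraction of nuclei relative to DMSO-treated wells, in %, so that 100 equals the control and higher values mean more apoptosis. Concentrations were fixed for each drug; these are the higher of two levels. No replicate spread is given; individual values may be noisy. Basal and induced levels differ widely between cell lines.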
An unselected part of the screen is shown.

STA-4783 + ENMD-2076 gave WM3619: 2070; MeWo: 3120; COLO 829: 249; WM1716: 159.
NVP-BEZ235 + PF-562271 gave WM3619: 124; MeWo: 127; COLO 829: 184; WM1716: 128.
STA-4783 + SU6656 gave WM3619: 2720; MeWo: 1730; COLO 829: 373; WM1716: 152.
ENMD-2076 + ruxolitinib gave WM3619: 135; MeWo: 148; COLO 829: 57.7; WM1716: 109.
ENMD-2076 + PF-562271 gave WM3619: 83.1; MeWo: 74.1; COLO 829: 84.0; WM1716: 100.
FH535 + darinaparsin gave WM3619: 130; MeWo: 84.4; COLO 829: 134; WM1716: 153.
STA-4783 + ruxolitinib gave WM3619: 2570; MeWo: 1000; COLO 829: 251; WM1716: 108.
ENMD-2076 + CX-4945 gave WM3619: 130; MeWo: 114; COLO 829: 279; WM1716: 187.
ruxolitinib + darinaparsin gave WM3619: 139; MeWo: 277; COLO 829: 132; WM1716: 163.
sunitinib + PF-562271 gave WM3619: 124; MeWo: 102; COLO 829: 54.7; WM1716: 41.4.
FH535 + ENMD-2076 gave WM3619: 154; MeWo: 105; COLO 829: 125; WM1716: 110.
sunitinib + NVP-BEZ235 gave WM3619: 129; MeWo: 111; COLO 829: 118; WM1716: 99.3.
embelin + ENMD-2076 gave WM3619: 91.2; MeWo: 118; COLO 829: 112; WM1716: 29.1.
PF-562271 + darinaparsin gave WM3619: 118; MeWo: 176; COLO 829: 82.6; WM1716: 74.4.
darinaparsin + CX-4945 gave WM3619: 156; MeWo: 103; COLO 829: 239; WM1716: 122.
CX-4945 + SU6656 gave WM3619: 174; MeWo: 203; COLO 829: 510; WM1716: 272.
STA-4783 + FH535 gave WM3619: 1930; MeWo: 3950; COLO 829: 796; WM1716: 117.
FH535 + NVP-BEZ235 gave WM3619: 207; MeWo: 244; COLO 829: 75.4; WM1716: 30.7.
STA-4783 + CX-4945 gave WM3619: 2090; MeWo: 1560; COLO 829: 397; WM1716: 98.7.
NVP-BEZ235 + SU6656 gave WM3619: 129; MeWo: 202; COLO 829: 56.3; WM1716: 52.5.
NVP-BEZ235 + STA-4783 gave WM3619: 410; MeWo: 799; COLO 829: 60.1; WM1716: 211.
darinaparsin + embelin gave WM3619: 124; MeWo: 126; COLO 829: 95.4; WM1716: 121.
NVP-BEZ235 + CX-4945 gave WM3619: 138; MeWo: 79.2; COLO 829: 197; WM1716: 105.
sunitinib + embelin gave WM3619: 103; MeWo: 62.4; COLO 829: 130; WM1716: 101.
darinaparsin + STA-4783 gave WM3619: 754; MeWo: 1760; COLO 829: 204; WM1716: 233.
ruxolitinib + NVP-BEZ235 gave WM3619: 129; MeWo: 175; COLO 829: 239; WM1716: 31.1.
sunitinib + FH535 gave WM3619: 109; MeWo: 213; COLO 829: 108; WM1716: 74.0.
darinaparsin + sunitinib gave WM3619: 134; MeWo: 209; COLO 829: 103; WM1716: 62.7.
FH535 + embelin gave WM3619: 142; MeWo: 59.5; COLO 829: 134; WM1716: 41.1.
PF-562271 + SU6656 gave WM3619: 298; MeWo: 136; COLO 829: 58.1; WM1716: 115.

The first 3 entries again:

{"pair": "STA-4783 + ENMD-2076", "WM3619": 2070, "MeWo": 3120, "COLO 829": 249, "WM1716": 159}
{"pair": "NVP-BEZ235 + PF-562271", "WM3619": 124, "MeWo": 127, "COLO 829": 184, "WM1716": 128}
{"pair": "STA-4783 + SU6656", "WM3619": 2720, "MeWo": 1730, "COLO 829": 373, "WM1716": 152}